Results from the supplement of paper PMC12593923.
Counter-ions that a name gives are not always drawn. Several reference drugs read as weak here; read low effects with care.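 OVCAR3, described as chemosensitive, is one of three high-grade serous ovarian cancer lines that differ in chemosensitivity. Toxicity was scaled from DMSO vehicle wells to fully lysed wells; scores came from fitted multi-dose response curves, and the authors treated scores above 5 as indicating drug sensitivity.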

How the values were obtained:
Assay in all cases: drug sensitivity score (DSS2, cytotoxicity, CellTox Green); higher = more cytotoxic / more sensitive; extreme values may be limits of the assay
Settings in all cases: 72 h; doses 0.5, 1, 5 µM
[1] = tested on: Kuramochi
[2] = tested on: OVCAR3
[3] = tested on: OVCAR4

Structure (SMILES)	drug sensitivity score [1]	drug sensitivity score [2]	drug sensitivity score [3]
CC1(C)CCC(CN2CCN(c3ccc(C(=O)NS(=O)(=O)c4ccc(NCC5CCOCC5)c([N+](=O)[O-])c4)c(Oc4cnc5[nH]ccc5c4)c3)CC2)=C(c2ccc(Cl)cc2)C1 [Venetoclax]	0 DSS	0 DSS	0 DSS
N=c1ccn2c(n1)O[C@H]1[C@H](O)[C@@H](CO)O[C@H]12 [Ancitabine (hydrochloride)]	0 DSS	0 DSS	0 DSS
Cc1nc(C(=O)NCC(=O)O)c(O)c2ccc(Oc3ccccc3)cc12 [Roxadustat]	0 DSS	0 DSS	0 DSS
CCN(CC)CC(=O)Nc1c(C)cccc1C [Lidocaine]	0 DSS	1 DSS	2.2 DSS
CC(C)(C(=O)c1cccnc1)c1cccnc1 [Metyrapone]	0 DSS	0 DSS	0 DSS
C=CCc1ccc(O)c(OC)c1 [Eugenol]	0 DSS	0 DSS	0 DSS
NC(=O)CC[C@H](N)C(=O)O [L-Glutamine]	0.1 DSS	3.3 DSS	2.7 DSS
Cc1[nH]c2ccccc2c1CCNCc1ccc(/C=C/C(=O)NO)cc1 [Panobinostat]	10.1 DSS	9.7 DSS	2.8 DSS
CC[C@H](C)[C@H](NC(=O)[C@H](Cc1ccc(O)cc1)NC(=O)[C@@H](NC(=O)[C@H](CCCNC(=N)N)NC(=O)[C@@H](N)CC(=O)O)C(C)C)C(=O)N[C@@H](Cc1cnc[nH]1)C(=O)N1CCC[C@H]1C(=O)N[C@@H](Cc1ccccc1)C(=O)O [Angiotensin II human]	0 DSS	0 DSS	0 DSS
CC(=O)Oc1ccccc1C(=O)O [Aspirin]	0 DSS	2.6 DSS	0 DSS
CCCCC(=O)N(Cc1ccc(-c2ccccc2-c2nn[nH]n2)cc1)[C@H](C(=O)O)C(C)C.CCOC(=O)[C@H](C)C[C@@H](Cc1ccc(-c2ccccc2)cc1)NC(=O)CCC(=O)O [Sacubitril/Valsartan]	–	0 DSS	0 DSS
CC(=O)Nc1cccc(-n2c(=O)n(C3CC3)c(=O)c3c(Nc4ccc(I)cc4F)n(C)c(=O)c(C)c32)c1 [Trametinib]	0 DSS	0 DSS	0 DSS
Nc1cccc2c1CN(C1CCC(=O)NC1=O)C2=O (centres undefined) [Lenalidomide (hemihydrate)]	0 DSS	2.6 DSS	0 DSS
CCN(CC)CCCC(C)Nc1ccnc2cc(Cl)ccc12 (centres undefined) [Chloroquine]	–	0 DSS	0 DSS
COC(=O)c1cc(OC)c2c(c1-c1c(CO)cc(OC)c3c1OCO3)OCO2 [Bicyclol]	0 DSS	0 DSS	0 DSS
NC(=O)N1CCC(CC(=O)N2CCC([C@H]3c4ncc(Br)cc4CCc4cc(Cl)cc(Br)c43)CC2)CC1 [Lonafarnib]	0 DSS	0 DSS	0 DSS
COc1cc([C@@H]2c3cc4c(cc3[C@@H](O[C@@H]3O[C@@H]5CO[C@@H](C)O[C@H]5[C@H](O)[C@H]3O)[C@H]3COC(=O)[C@H]23)OCO4)cc(OC)c1OP(=O)(O)O [Etoposide phosphate]	0 DSS	0 DSS	0 DSS
NC(=O)c1cnc2[nH]ccc2c1N[C@@H]1[C@@H]2CC3C[C@H]1C[C@@](O)(C3)C2 [Peficitinib]	0 DSS	0 DSS	0 DSS
C[C@]12C=CC(=O)N[C@@H]1CC[C@@H]1[C@@H]2CC[C@]2(C)[C@@H](C(=O)Nc3cc(C(F)(F)F)ccc3C(F)(F)F)CC[C@@H]12 [Dutasteride]	0 DSS	0 DSS	0 DSS
CCN(CC)CCNC(=O)c1c(C)[nH]c(/C=C2\C(=O)Nc3ccc(F)cc32)c1C [Sunitinib]	0 DSS	0 DSS	0 DSS
CCCCC1=NC2(CCCC2)C(=O)N1Cc1ccc(-c2ccccc2-c2nnn[nH]2)cc1 [Irbesartan]	0 DSS	0 DSS	0 DSS
O=C1CCC[C@@H]2[C@H]3CCC[N+]4([O-])CCC[C@@H](CN12)[C@@H]34 (some centres undefined) [Oxymatrine]	0 DSS	0 DSS	0 DSS
Nc1ccn([C@@H]2O[C@H](CO)[C@@H](O)C2(F)F)c(=O)n1 [Gemcitabine (hydrochloride)]	0 DSS	0 DSS	0 DSS
Cc1ncc(CNC(=O)N(CCCl)N=O)c(N)n1 [Nimustine (hydrochloride)]	0 DSS	0 DSS	0 DSS

Structure (SMILES)	drug sensitivity score [1]	drug sensitivity score [2]	drug sensitivity score [3]
O=C(c1ccc(OCCN2CCCCC2)cc1)c1c(-c2ccc(O)cc2)sc2cc(O)ccc12 [Raloxifene (hydrochloride)]	0 DSS	0 DSS	0 DSS
CNC(=O)c1ccc(-c2cnc3ncc(Cc4ccc5ncccc5c4)n3n2)cc1F [Capmatinib]	0 DSS	0 DSS	0 DSS
Nc1nc(Cl)nc2c1ncn2[C@H]1C[C@H](O)[C@@H](CO)O1 [Cladribine]	1.5 DSS	2.3 DSS	0 DSS
O=c1[nH]cc(F)c(=O)[nH]1 [5-Fluorouracil]	0 DSS	0 DSS	0 DSS
CN(C)C/C=C/C(=O)Nc1cc2c(Nc3ccc(F)c(Cl)c3)ncnc2cc1O[C@H]1CCOC1 [Afatinib]	0 DSS	0 DSS	0 DSS
CC(C)(C)c1nc(-c2cccc(NS(=O)(=O)c3c(F)cccc3F)c2F)c(-c2ccnc(N)n2)s1 [Dabrafenib (Mesylate)]	0 DSS	0 DSS	0 DSS
COc1ccc2c(c1)c(CC(=O)O)c(C)n2C(=O)c1ccc(Cl)cc1 [Indomethacin (sodium hydrate)]	0 DSS	0 DSS	0 DSS
N#CC[C@H](C1CCCC1)n1cc(-c2ncnc3[nH]ccc23)cn1 [Ruxolitinib]	0 DSS	0 DSS	0 DSS
CC(C)c1nc(CN(C)C(=O)N[C@H](C(=O)N[C@@H](Cc2ccccc2)C[C@H](O)[C@H](Cc2ccccc2)NC(=O)OCc2cncs2)C(C)C)cs1 [Ritonavir]	0 DSS	0 DSS	0 DSS
CNCCCC12CCC(c3ccccc31)c1ccccc12 [Maprotiline (hydrochloride)]	0 DSS	0 DSS	0 DSS
C=CC[C@@H]1/C=C(\C)C[C@H](C)C[C@H](OC)[C@H]2O[C@@](O)(C(=O)C(=O)N3CCCC[C@H]3C(=O)O[C@H](/C(C)=C/[C@@H]3CC[C@@H](O)[C@H](OC)C3)[C@H](C)[C@@H](O)CC1=O)[C@H](C)C[C@@H]2OC [Tacrolimus (monohydrate)]	0 DSS	0 DSS	0 DSS
CCCNS(=O)(=O)Nc1ncnc(OCCOc2ncc(Br)cn2)c1-c1ccc(Br)cc1 [Macitentan]	0 DSS	0 DSS	0 DSS
CCC(Sc1nnc2c(n1)[nH]c1ccccc12)C(=O)N1c2ccccc2Sc2ccccc21 (centres undefined) [Inauhzin]	0 DSS	0 DSS	0 DSS
C=C[C@]1(C)CC[C@@H](C(=C)C)C[C@H]1C(=C)C [β-Elemene]	0 DSS	0.7 DSS	0 DSS
CC[C@H]1OC(=O)[C@H](C)[C@@H](O[C@H]2C[C@@](C)(OC)[C@@H](O)[C@H](C)O2)[C@H](C)[C@@H](O[C@@H]2O[C@H](C)C[C@H](N(C)C)[C@H]2O)[C@](C)(O)C[C@@H](C)CN(C)[C@H](C)[C@@H](O)[C@]1(C)O [Azithromycin]	0 DSS	0 DSS	0 DSS
O=c1ccc2ccc(O)c(O)c2o1 [Daphnetin]	0 DSS	0 DSS	0 DSS
Cc1ccc(NC(=O)c2ccc(CN3CCN(C)CC3)cc2)cc1Nc1nccc(-c2cccnc2)n1 [Imatinib (Mesylate)]	–	0 DSS	0 DSS
N#C[C@@H]1CCCN1C(=O)CNC12CC3CC(CC(O)(C3)C1)C2 [Vildagliptin]	–	0 DSS	0 DSS
Nc1ccn([C@@H]2O[C@H](CO)[C@@H](O)[C@@H]2O)c(=O)n1 [Cytarabine (hydrochloride)]	–	0 DSS	0 DSS
CCN(CC)CCCC(C)Nc1ccnc2cc(Cl)ccc12 (centres undefined) [Chloroquine (phosphate)]	–	0 DSS	0 DSS
CN(C)CCCC1(c2ccc(F)cc2)OCc2cc(C#N)ccc21 (centres undefined) [Citalopram (hydrobromide)]	–	0 DSS	0 DSS
Cc1ccc(NC(=O)c2ccc(CN3CCN(C)CC3)cc2)cc1Nc1nccc(-c2cccnc2)n1 [Imatinib]	–	0 DSS	0 DSS
CCOC(=O)[C@H](CCc1ccccc1)N[C@@H](C)C(=O)N1[C@H](C(=O)O)C[C@@H]2CCC[C@@H]21 [Ramipril]	–	0 DSS	0 DSS
Nc1ccn([C@@H]2O[C@H](CO)[C@@H](O)[C@@H]2O)c(=O)n1 [Cytarabine]	–	0 DSS	0 DSS

Record cards, from the list above. Order of values: drug sensitivity score [1]	drug sensitivity score [2]	drug sensitivity score [3]
CC(C)(C)c1nc(-c2cccc(NS(=O)(=O)c3c(F)cccc3F)c2F)c(-c2ccnc(N)n2)s1 [Dabrafenib (Mesylate)] reads 0 DSS	0 DSS	0 DSS
Cc1ccc(NC(=O)c2ccc(CN3CCN(C)CC3)cc2)cc1Nc1nccc(-c2cccnc2)n1 [Imatinib] reads –	0 DSS	0 DSS
Cc1ccc(NC(=O)c2ccc(CN3CCN(C)CC3)cc2)cc1Nc1nccc(-c2cccnc2)n1 [Imatinib (Mesylate)] reads –	0 DSS	0 DSS
CCC(Sc1nnc2c(n1)[nH]c1ccccc12)C(=O)N1c2ccccc2Sc2ccccc21 (centres undefined) [Inauhzin] reads 0 DSS	0 DSS	0 DSS
